# Laboratory results from PubChem BioAssay AID1259354 (Paczesny and Yang Labs, IUPUI and University of Michigan, 2018).
# Amino acid sequences for entries named in this document (tags omitted). A change or cut given only in a name is not applied to a line headed by its entry.
# UniProt Q01638: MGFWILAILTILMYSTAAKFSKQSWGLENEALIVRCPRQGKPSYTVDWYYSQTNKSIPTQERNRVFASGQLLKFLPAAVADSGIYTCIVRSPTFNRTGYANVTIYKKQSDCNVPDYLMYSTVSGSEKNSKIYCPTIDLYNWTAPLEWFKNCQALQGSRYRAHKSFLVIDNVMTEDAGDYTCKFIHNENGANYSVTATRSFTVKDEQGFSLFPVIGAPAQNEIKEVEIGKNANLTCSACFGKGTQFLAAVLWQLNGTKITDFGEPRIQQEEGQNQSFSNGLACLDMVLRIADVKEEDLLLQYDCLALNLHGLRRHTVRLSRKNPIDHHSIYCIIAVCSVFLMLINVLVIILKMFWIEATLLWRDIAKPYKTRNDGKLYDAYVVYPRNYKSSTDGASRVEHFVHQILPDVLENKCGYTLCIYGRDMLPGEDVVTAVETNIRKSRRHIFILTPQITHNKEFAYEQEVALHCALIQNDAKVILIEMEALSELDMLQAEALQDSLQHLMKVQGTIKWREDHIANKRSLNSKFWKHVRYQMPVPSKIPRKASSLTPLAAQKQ
# Hit rate of the full screen: of about 78,000 compounds, about 1,800 (2.3%) were called active. The inconclusive results got no clear call from the source; some entries with a clear call stand among them for comparison. Rule as the data show it: active = inhibition above about 30%; inconclusive = mostly about 10% to 28%; inactive = weaker than that.
# Target: Interleukin-1 receptor-like 1 (Homo sapiens) (UniProt Q01638)
# Assay: blocks human ST2 binding to IL-33, primary screen, biochemical, AlphaLISA (AID 1259354)
# Conditions: AlphaLISA ST2-Fc/biotin-IL-33 interaction, 1 h; at 17 µM, hits give high values
row,SMILES,inhibition
1,COC(=O)CC[C@H]1CNC(=O)[C@@H]2[C@@H](CCN2Cc2nc3ccccc3n2C)N1C,inconclusive: 12%
2,CCn1c2ccccc2n2c(C(=O)OC)c(C)nc12,inconclusive: 10%
3,C#C[C@](O)(c1ccc(OC)c(OC)c1)c1ccc(OC)cc1OC,inactive
4,CCn1c(C2CCCNC2)nn(Cc2cn3cccc(C)c3n2)c1=O (configuration not stated),inconclusive: 10%
5,Cc1cnc(C(=O)N2CCC(O)(CN(C)C)C2)cn1 (configuration not stated),inconclusive: 11%
6,Cn1c(=O)n(C)c2cc(CNc3nc(CCN)nc4ccccc34)ccc21,inconclusive: 25%
7,COC(=O)c1ccc2c(=O)n(CCc3ccccc3)c(=O)[nH]c2c1,inactive
8,O=C(NCCN1CCN(c2ccccc2F)CC1)c1ccc2nc3ccc(Cl)cc3c(=O)n2c1,inactive
9,Cc1[nH]nc(SCC(=O)NC2CCCC2)c1[N+](=O)[O-],inconclusive: 10%
10,CC(=O)Oc1ccc(C2C(C(=O)OCc3ccccc3)=C(C)N=C3SCCC(=O)N32)cc1 (configuration not stated),inactive
11,CC(=O)NCC1CCCN(C(=O)CN2CC3(CCCC3)CC2=O)C1 (configuration not stated),inconclusive: 10%
12,COc1ccc2oc(=O)c(-c3cnc(C)s3)cc2c1,inconclusive: 25%
13,COc1ccc(NC(=O)c2oc3ccccc3c2NC(=O)c2cc3ccccc3oc2=O)cc1,inactive
14,COc1ccc(NC(=O)CC2SC(Nc3ccccc3)NC2=O)c(OC)c1 (configuration not stated),inconclusive: 21%
15,CCc1nc2c(sc3nc4c(cc32)COC(C)(C)C4)c(=O)n1CCN1CCOCC1,inactive
16,O=C(Nc1ccccc1[N+](=O)[O-])c1ccc(Br)o1,inconclusive: 24%
17,COc1cc2c(C(=O)NC3CCCCCC3)cn(CC(C)C)c(=O)c2cc1OC,inactive
18,O=C(NC1CCCCCC1)c1cnc2n(c1=O)CCS2,inactive
19,CCn1nnnc1SCC(=O)Nc1ccc(Br)cc1,inconclusive: 23%
20,COc1ccc(/C=C2/SC(=Nc3ccc(S(N)(=O)=O)cc3)NC2=O)cc1,active: 37%
21,CC(=O)c1ccc(NC(=O)c2ccccc2[N+](=O)[O-])cc1,inconclusive: 12%
22,Cc1nn(Cc2ccccc2)c(C)c1NC(=O)c1noc2c1CC(C(C)(C)C)CC2 (configuration not stated),inconclusive: 12%
23,Cc1cnc(C)c(-c2cc(F)cc3c2OC(CNC(=O)c2ccc(Cn4nc(C)cc4C)cc2)C3)n1 (configuration not stated),inconclusive: 12%

# 4 compounds drawn at random from those above:
row,SMILES,inhibition
13,COc1ccc(NC(=O)c2oc3ccccc3c2NC(=O)c2cc3ccccc3oc2=O)cc1,inactive
8,O=C(NCCN1CCN(c2ccccc2F)CC1)c1ccc2nc3ccc(Cl)cc3c(=O)n2c1,inactive
2,CCn1c2ccccc2n2c(C(=O)OC)c(C)nc12,inconclusive: 10%
12,COc1ccc2oc(=O)c(-c3cnc(C)s3)cc2c1,inconclusive: 25%

# Further results follow:

row,SMILES,inhibition
1,CSc1ccc(C(=O)N2CCC(C(Cc3ccccc3)N(C)C(=O)c3ccccn3)CC2)cc1 (configuration not stated),inconclusive: 25%
2,Cc1ccc(C23C[C@@H]4C[C@@H](CC(O)(C4)C2)C3)cc1N=Cc1ccccc1O,inconclusive: 11%
3,COc1ccc(C(C[N+](=O)[O-])c2c(C)[nH]c3ccccc23)c(OC)c1 (configuration not stated),inconclusive: 12%
4,O=C(CSc1n[nH]c(-c2ccccc2Cl)n1)Nc1ccccc1F,inactive
5,Cc1cc(O)c2c(c1)C(=O)c1cc(O)cc(O)c1C2=O,inconclusive: 10%
6,COc1ccccc1CNC(=O)[C@@H](C)C1CC[C@@]2(C)CC[C@H](NC(=O)c3ccncc3)[C@@H](C)[C@@H]2[C@H]1O (some centres not stated),inconclusive: 11%
7,CC(C)C(C)N(CCn1c(=O)oc2ccccc21)Cc1ccco1 (configuration not stated),inconclusive: 27%
8,FC(F)(F)c1ccc2nnc(-c3cccc(I)c3)n2c1,active: 54%
9,O=C1CSC(c2ccc([N+](=O)[O-])cc2)N1c1cccc(Cl)c1Cl (configuration not stated),inconclusive: 15%
10,CCc1ccc(CN2CCCC(c3n[nH]c(=O)n3-c3ccccc3)C2)nc1 (configuration not stated),inconclusive: 16%
11,N#Cc1c(N)n(Cc2ccccc2)c2nc3ccccc3nc12,inconclusive: 16%
12,Cc1ccc(C)c(NC(=O)c2ccc(Cl)c(Cl)c2)c1,inconclusive: 24%
13,Cc1cccc(NC(=O)c2sc3[nH]c(=O)c(C(=O)O)cc3c2N)c1,inconclusive: 12%
14,Cn1c(=O)c2c(nc(N3CCCCCC3)n2CCSc2ncccn2)n(C)c1=O,inconclusive: 20%
15,CN(C)CC1(O)CCCN(S(=O)(=O)c2ccc(F)cc2Cl)CC1 (configuration not stated),inconclusive: 12%
16,CCOc1ccc(C(=O)Nc2ccc(NC(=O)c3cccs3)cc2)cc1[N+](=O)[O-],inactive
17,N#C/C(=C\c1cccc([N+](=O)[O-])c1)c1nc(-c2ccc3c(c2)OCO3)cs1,inactive
18,COc1ccc(NC(=O)c2cc(-c3cccs3)on2)cc1OC,inconclusive: 12%
19,Cc1ccc2nsnc2c1NC(=O)COc1ccc(Br)cc1,inconclusive: 23%
20,CC(=O)N1c2c(cc(Br)cc2S(=O)(=O)Nc2ccc3c(c2)OCCO3)CC1C (configuration not stated),inactive
21,Cc1ccc(C2=C/C(=C/c3ccccn3)C(=O)O2)cc1,inconclusive: 28%
22,CC1CCCCN1c1nc2c(c(=O)n(C)c(=O)n2C)n1CC(=O)c1ccccc1 (configuration not stated),inconclusive: 19%
23,C=CCOc1ccc(/C=C2/SC(=Nc3ccccc3)NC2=O)cc1OCC,active: 37%

row,SMILES,inhibition
1,COc1cccc(-n2c(=O)c3sccc3n(Cc3ccccc3C#N)c2=O)c1,inactive
2,O=C(CN1CCN(Cc2ccc(F)cc2)C1=O)NCC1CCCO1 (configuration not stated),inactive
3,CC(=O)N1CCn2nc(C(=O)N(Cc3ccc4[nH]ccc4c3)C3CC3)cc2C1,inconclusive: 23%
4,N=C1SCC(=O)N1c1ccc(Br)cc1,inactive
5,CCc1nc(C)cc(-c2c(Cl)cccc2OC)n1,inconclusive: 14%
6,O=C1CCCCCN1CC(=O)N1CCCC2(C1)C(=O)Nc1ccccc12 (configuration not stated),inconclusive: 10%
7,CC(=O)c1ccc2c(c1)c1cc(C(C)=O)ccc1n2C,inconclusive: 14%
8,OCc1ccc(CN2C[C@H](O)C[C@H]2c2nc(-c3ccccc3)no2)o1,inconclusive: 13%
9,O=C(O)COCC(=O)N[C@H]1CO[C@H]2[C@@H]1OC[C@@H]2n1nnnc1-c1ccc2c(c1)OCO2,inconclusive: 14%
10,O=c1[nH]cnc2[nH]ncc12,inconclusive: 10%
11,CCc1nnc(NC(=O)CSc2nc3c(c(=O)n2-c2ccccc2OC)SCC3)s1,inconclusive: 17%
12,O=C(c1ccc(Br)o1)N1CCN(c2ccc(Cl)cc2[N+](=O)[O-])CC1,inconclusive: 28%
13,CC(C)c1ccc(NC(=O)O[C@@H]2CO[C@H]3[C@@H]2OC[C@@H]3NC(=O)c2ccc(C(F)(F)F)cc2)cc1,inconclusive: 18%
14,N#Cc1c(NC(=O)c2cc(-c3cccs3)on2)sc2c1CCC2,inconclusive: 10%
15,Cn1cc(C(NS(=O)(=O)c2ccccc2)C(Cl)(Cl)Cl)c2ccccc21 (configuration not stated),inconclusive: 10%
16,Cc1cc(OCc2nc(-c3nonc3N)no2)cc(C)c1Cl,inconclusive: 21%
17,CCN=c1sc(C=C2C=Nc3ccccc32)c(O)n1CC,inconclusive: 16%
18,CN(C)C(=O)Oc1cccc([N+](C)(C)C)c1,inconclusive: 11%
19,CC(NS(=O)(=O)c1ccc(F)cc1)C(c1cccs1)N1CCN(c2ccccc2F)CC1 (configuration not stated),inconclusive: 10%
20,C=CCC1c2cccc(C(=O)O)c2C(=O)N1c1ccc(Cl)cc1 (configuration not stated),inconclusive: 11%
21,Cc1nc(C)c(-c2nccn2-c2ccc3cn[nH]c3c2)s1,inconclusive: 10%
22,Cc1ccc(NC(=O)CCc2ccccc2)cc1,inactive
23,CSc1nc(N)nc(SCC(=O)Nc2cccc(C(F)(F)F)c2)c1C#N,inconclusive: 13%

row,SMILES,inhibition
1,CCN(CC1CCCN(CCc2cccc(F)c2)C1)C(=O)c1ccc2[nH]ccc2c1 (configuration not stated),inactive
2,COc1ccc(N(C(=O)C(C)(C)C)C2C=CS(=O)(=O)C2)cc1 (configuration not stated),inactive
3,Cc1c(N=Cc2cc(Cl)ccc2O)c(=O)n(-c2ccccc2)n1C,inconclusive: 25%
4,CCCCOC(=O)C(C)Oc1ccc2c(=O)c(Oc3ccc(OC)cc3)coc2c1 (configuration not stated),inconclusive: 16%
5,O[C@@H]1C[C@@H](c2nc(-c3ccc(F)cc3)no2)N(Cc2ccc(OC(F)(F)F)cc2)C1,active: 53%
6,O=C1C2CCCN2C(c2ccco2)N1c1nccs1 (configuration not stated),inconclusive: 10%
7,Cc1ncc2c(c1CNS(=O)(=O)c1ccsc1)CCN(C(=O)c1cccc(N(C)C)c1)C2,inactive
8,Cc1ccc(C)c(OCC(=O)NCCNC(=O)c2cccnc2)c1C,inconclusive: 17%
9,O=C1NC(CC(=O)N2CCc3c(cc(-c4cccc(Cl)c4)c(=O)n3CC3CC3)C2)c2ccccc21 (configuration not stated),inconclusive: 12%
10,Cn1nc([N+](=O)[O-])nc1Oc1cccc2cccnc12,inconclusive: 27%
11,CC(C)CN1C(=O)N(Cc2ccccc2)C2(CCN(C3CCOCC3)CC2)C1=O,inconclusive: 12%
12,O=C1CCCC2=C1C(c1ccc(Cl)cc1Cl)Nc1ccccc1N2 (configuration not stated),inconclusive: 18%
13,Cc1cccc(C(=O)N2N=C(C(F)(F)F)CC2(O)c2ccc(Br)cc2)c1 (configuration not stated),inconclusive: 21%
14,Cc1ccc(-n2c(SCC(=O)NC3CCCCC3)nc(O)c(C)c2=O)cc1,inconclusive: 14%
15,O=c1c(Oc2ccccc2F)coc2cc(OCc3cnn(-c4ccccc4)c3)ccc12,inconclusive: 18%
16,COc1ccc(/C=C(\C#N)c2nc(-c3ccc(C)cc3)cs2)cc1,active: 60%
17,CCc1cn[nH]c1C1CCN(C(=O)c2cn(CC3CCCNC3)nn2)CC1 (configuration not stated),inconclusive: 25%
18,CC(=O)NC(=O)c1cc2cc(Cl)cc(Cl)c2oc1=Nc1cccc(F)c1,inactive
19,O=C(Nc1ccccc1C(F)(F)F)NC1CCCCC1,inconclusive: 15%
20,CCOc1ccc(CC(=O)NC2CC(=O)N(c3cccc(F)c3)C2)cc1 (configuration not stated),inconclusive: 11%
21,Cc1ccc(C#N)c(SCC(=O)c2ccc(Cl)cc2)n1,inconclusive: 20%
22,CCc1nnc(Cn2cc(-c3ccnc4ccccc34)nn2)s1,inconclusive: 16%
23,COc1ccc(-c2cc(C(=O)Nc3cc(Br)ccc3O)no2)cc1,active: 35%
